Where two headings read alike, the source gives them in different places. These are yes or no findings as the source states them, for the method shown. Binding seen in cells or lysates may run through a third protein. Here binding means that the protein was enriched with, or labelled near, the bait; the list need not be complete. Sequences can lack the tags named with a protein. Blank lines part the entries; values can stand above or below the molecule they belong to.
Legend:
[1] = target: T1, YAP1C probe (Yap1 C-terminal cysteine-rich domain construct fused to a tandem affinity purification tag) (Saccharomyces cerevisiae) (UniProt P19880); experiment: affinity purification with mass spectrometry; extract of YAP1C cells (untreated or 20 mM H2O2 for 30 min; 10 mM iodoacetamide in the lysis buffer) on IgG-Sepharose beads, 2 h at 4°C; on-bead Trypsin/Lys-C digestion under non-reducing conditions; LC-MS/MS of linear and cross-linked peptides (pLink 2, FDR ≤ 1%)
T1 sequence: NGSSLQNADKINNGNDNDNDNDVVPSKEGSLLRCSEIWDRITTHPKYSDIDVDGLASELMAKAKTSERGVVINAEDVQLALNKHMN

The chains behind the UniProt entries cited, without tags or fusion partners.
UniProt Q9FRL8: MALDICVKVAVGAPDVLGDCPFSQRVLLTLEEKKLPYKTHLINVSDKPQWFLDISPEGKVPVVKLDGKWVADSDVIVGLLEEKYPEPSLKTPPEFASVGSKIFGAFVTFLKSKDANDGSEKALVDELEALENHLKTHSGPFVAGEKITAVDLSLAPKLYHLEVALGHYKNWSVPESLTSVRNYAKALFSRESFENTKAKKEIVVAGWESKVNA

[2] = target: T1, YAP1C probe (Yap1 C-terminal cysteine-rich domain construct fused to a tandem affinity purification tag) (Saccharomyces cerevisiae); experiment: as above; remark: listed apart in the source

- binding [1]: binds
Molecule: DEHYDROASCORBATE REDUCTASE 2 (from UniProt Q9FRL8 1-213) (enzyme)

- binding [2]: binds
B1: PROTEIN PHOSPHATASE5 (enzyme, UniProt Q84XU2 1-538)
chain: METKNENSDVSRAEEFKSQANEAFKGHKYSSAIDLYTKAIELNSNNAVYWANRAFAHTKLEEYGSAIQDASKAIEVDSRYSKGYYRRGAAYLAMGKFKDALKDFQQVKRLSPNDPDATRKLKECEKAVMKLKFEEAISVPVSERRSVAESIDFHTIGNKPRSSSMPTKTALAAVVAAVMVVAVRGFATTEILMVLVSVVLGTFWWGSFSGKVEPQYSGARIEGEEVTLDFVKTMMEDFKNQKTLHKRYAYQIVLQTRQILLALPSLVDISVPHGKHITVCGDVHGQFYDLLNIFELNGLPSEENPYLFNGDFVDRGSFSVEIILTLFAFKCMCPSSIYLARGNHESKSMNKIYGFEGEVRSKLSEKFVDLFAEVFCYLPLAHVINGKVFVVHGGLFSVDGVKLSDIRAIDRFCEPPEEGLMCELLWSDPQPLPGRGPSKRGVGLSFGGDVTKRFLQDNNLDLLVRSHEVKDEGYEVEHDGKLITVFSAPNYCDQMGNKGAFIRFEAPDMKPNIVTFSAVPHPDVKPMAYANNFLRMFN
